Laboratory results from US7906486B2, “Method of treating or preventing tissue deterioration, injury or damage due to disease of mucosa” (SciClone Pharmaceuticals, Inc., priority 2007, dated 2011).
Values joined by “and” are separate entries in the source; they are usually repeats but may differ in a detail not shown here. Equal entries are not always repeated. The source gives many values for each of these; only a part stands here.

Assay: Weights and survival (Example 3, SCI-03)
Type: in vivo, Syrian Golden Hamsters
Conditions: individual animals
Description: All animals were weighed daily and their survival recorded, in order to assess possible differences in animal weight among treatment groups as an indication for mucositis severity and/or possible toxicity resulting from the treatments.
There were no significant differences in weight changes between study groups. The mean daily percent weight change data was evaluated. The saline treated control hamsters gained an average of 76.3% of their starting weight during the study. Hamsters in the group receiving SCV-07 at 100 μg/kg on days −1 to 29 gained an average of 80.7% of their starting weight during the study. Hamsters in the group receiving SCV-07 at 100 μg/kg on days of radiation only gained an average of 66.3% of their starting weight during the study. Hamsters in the group receiving SCV-07 at 100 μg/kg on day −1, day 4, day 5 and days 10-29 gained an average of 69.7% of their starting weight during the study. The significance of these differences was evaluated by calculating the area-under-the-curve (AUC) for the weight gain of each animal, and then comparing the different treatment groups using a One-Way ANOVA test.

For `N[C@H](CCC(=O)N[C@@H](Cc1c[nH]c2ccccc12)C(=O)O)C(=O)O` [SCV-07, γ-D-glutamyl-L-tryptophan], the Animal weight (Group 3 (SCV-07 on days of radiation 0-3 and 6-9), day 18) was 117 and 109 and 137 and 101 and 104 (2×) and 102 and 108 (2×) and 87, the Animal weight (Group 3 (SCV-07 on days of radiation 0-3 and 6-9), day 19) was 122 and 112 and 138 and 105 and 108 and 106 and 111 and 113 and 107 and 90 and the Animal weight (Group 3 (SCV-07 on days of radiation 0-3 and 6-9), day 20) was 123 and 114 (2×) and 141 and 107 (2×) and 109 and 108 and 112 and 90. For the same compound, the Animal weight (Group 3 (SCV-07 on days of radiation 0-3 and 6-9), day 21) was 124 and 115 and 141 and 108 (2×) and 109 (2×) and 114 (2×) and 93, the Animal weight (Group 3 (SCV-07 on days of radiation 0-3 and 6-9), day 22) was 127 and 114 and 144 and 108 and 112 and 111 (2×) and 115 and 118 and 93 and the Animal weight (Group 3 (SCV-07 on days of radiation 0-3 and 6-9), day 23) was 127 and 121 and 152 and 113 (3×) and 118 and 120 and 114 and 96. For the same compound, the Animal weight (Group 3 (SCV-07 on days of radiation 0-3 and 6-9), day 24) was 128 and 122 and 148 and 114 and 115 (3×) and 120 and 121 and 95, the Animal weight (Group 3 (SCV-07 on days of radiation 0-3 and 6-9), day 25) was 128 and 121 (2×) and 150 and 115 and 116 (2×) and 122 and 114 and 95 and the Animal weight (Group 3 (SCV-07 on days of radiation 0-3 and 6-9), day 26) was 131 and 124 (2×) and 153 and 119 (2×) and 117 and 122 and 120 and 97. The Animal weight (Group 3 (SCV-07 on days of radiation 0-3 and 6-9), day 27) was 133 and 125 and 158 and 119 (3×) and 124 and 126 and 222 and 97, the Animal weight (Group 3 (SCV-07 on days of radiation 0-3 and 6-9), day 28) was 134 and 127 and 158 and 122 and 121 (2×) and 125 and 128 and 120 and 100 and the Animal weight (Group 3 (SCV-07 on days of radiation 0-3 and 6-9), day 29) was 132 and 126 (2×) and 158 and 122 (2×) and 120 and 128 and 121 and 99. The Animal weight (Group 3 (SCV-07 on days of radiation 0-3 and 6-9), day 30) was 135 and 130 and 162 and 126 and 122 and 125 (2×) and 129 and 132 and 102, the Animal weight (Group 3 (SCV-07 on days of radiation 0-3 and 6-9), day 31) was 138 and 132 and 165 and 128 (2×) and 123 and 131 and 134 and 125 and 104 and the Animal weight (Group 3 (SCV-07 on days of radiation 0-3 and 6-9), day 32) was 139 and 133 and 165 and 128 (2×) and 124 and 130 and 131 and 134 and 103. For the same compound, the Animal weight (Group 3 (SCV-07 on days of radiation 0-3 and 6-9), day 33) was 143 and 136 and 172 and 133 (2×) and 127 and 132 and 140 and 131 and 107, the Animal weight (Group 3 (SCV-07 on days of radiation 0-3 and 6-9), day 34) was 143 and 136 and 171 and 134 (2×) and 127 and 133 and 138 and 131 and 107 and the Animal weight (Group 3 (SCV-07 on days of radiation 0-3 and 6-9), day 35) was 144 and 137 and 170 and 135 (2×) and 128 and 134 and 140 and 132 and 110. For the same compound, the Animal weight (Group 3 (SCV-07 on days of radiation 0-3 and 6-9), day −1) was 87 (2×) and 76 (2×) and 93 and 78 and 80 (2×) and 84 and 79, the Animal weight (Group 4 (SCV-07 on days −1, 4, 5 and 10-29), day 0) was 84 and 88 and 85 and 89 (2×) and 90 and 91 and 94 and 73 and 87 and the Animal weight (Group 4 (SCV-07 on days −1, 4, 5 and 10-29), day 1) was 85 and 90 (2×) and 82 and 87 and 89 and 91 and 92 and 72 and 86. For the same compound, the Animal weight (Group 4 (SCV-07 on days −1, 4, 5 and 10-29), day 2) was 89 and 91 (2×) and 96 and 90 and 92 (2×) and 97 and 73 and 85, the Animal weight (Group 4 (SCV-07 on days −1, 4, 5 and 10-29), day 3) was 90 and 94 (3×) and 87 and 86 and 97 and 98 and 73 and 88 and the Animal weight (Group 4 (SCV-07 on days −1, 4, 5 and 10-29), day 4) was 93 and 94 and 85 and 91 and 97 and 96 and 95 and 99 and 73 and 87. The Animal weight (Group 4 (SCV-07 on days −1, 4, 5 and 10-29), day 5) was 94 and 99 and 89 and 97 and 104 and 98 (2×) and 106 and 76 and 87, the Animal weight (Group 4 (SCV-07 on days −1, 4, 5 and 10-29), day 6) was 96 and 102 and 92 and 99 and 107 and 101 (2×) and 106 and 79 and 90 and the Animal weight (Group 4 (SCV-07 on days −1, 4, 5 and 10-29), day 7) was 97 and 103 (2×) and 93 and 101 and 110 and 102 and 109 and 78 and 92. For the same compound, the Animal weight (Group 4 (SCV-07 on days −1, 4, 5 and 10-29), day 8) was 98 and 105 and 91 and 103 and 108 and 102 (2×) and 106 and 79 and 89, the Animal weight (Group 4 (SCV-07 on days −1, 4, 5 and 10-29), day 9) was 101.2 and 110.3 and 95.3 and 108.6 and 111.7 and 104.7 and 106.7 and 110.6 and 80.7 and 90.6 and the Animal weight (Group 4 (SCV-07 on days −1, 4, 5 and 10-29), day 10) was 102 and 110 (2×) and 95 and 114 and 108 (2×) and 112 and 80 and 89. For the same compound, the Animal weight (Group 4 (SCV-07 on days −1, 4, 5 and 10-29), day 11) was 104 and 112 and 96 and 110 and 115 and 107 and 109 and 114 and 78 and 90, the Animal weight (Group 4 (SCV-07 on days −1, 4, 5 and 10-29), day 12) was 105 and 116 and 97 and 115 (2×) and 117 and 109 and 112 and 82 and 93 and the Animal weight (Group 4 (SCV-07 on days −1, 4, 5 and 10-29), day 13) was 107 and 116 and 97 and 117 (2×) and 119 and 110 and 113 and 81 and 88. The Animal weight (Group 4 (SCV-07 on days −1, 4, 5 and 10-29), day 14) was 105 and 116 and 96 and 118 and 121 and 110 and 113 and 117 and 83 and 88, the Animal weight (Group 4 (SCV-07 on days −1, 4, 5 and 10-29), day 15) was 106 and 116 and 96 and 120 and 122 and 111 and 113 and 119 and 83 and 89 and the Animal weight (Group 4 (SCV-07 on days −1, 4, 5 and 10-29), day 16) was 109 and 117 and 96 and 122 and 124 and 112 and 113 and 121 and 86 and 94. The Animal weight (Group 4 (SCV-07 on days −1, 4, 5 and 10-29), day 17) was 111 and 117 and 96 and 123 and 127 and 113 and 114 and 122 and 87 and 97, the Animal weight (Group 4 (SCV-07 on days −1, 4, 5 and 10-29), day 18) was 112 and 114 and 95 and 122 and 127 and 115 and the Animal weight (Group 4 (SCV-07 on days −1, 4, 5 and 10-29), day 19) was 118 and 120 and 98 and 128 and 132 and 119. The Animal weight (Group 4 (SCV-07 on days −1, 4, 5 and 10-29), day 20) was 118 (2×) and 121 and 99 and 128 and 133, the Animal weight (Group 4 (SCV-07 on days −1, 4, 5 and 10-29), day 21) was 120 (2×) and 124 and 101 and 131 and 136 and the Animal weight (Group 4 (SCV-07 on days −1, 4, 5 and 10-29), day 22) was 124 (2×) and 102 and 133 and 134 and 122. The Animal weight (Group 4 (SCV-07 on days −1, 4, 5 and 10-29), day 23) was 124 and 127 and 105 and 135 and 137 and 123, the Animal weight (Group 4 (SCV-07 on days −1, 4, 5 and 10-29), day 24) was 123 and 128 and 107 and 138 (2×) and 124 and the Animal weight (Group 4 (SCV-07 on days −1, 4, 5 and 10-29), day 25) was 125 and 131 and 108 and 139 and 140 and 128. For the same compound, the Animal weight (Group 4 (SCV-07 on days −1, 4, 5 and 10-29), day 26) was 126 and 134 and 110 and 142 and 143 and 128, the Animal weight (Group 4 (SCV-07 on days −1, 4, 5 and 10-29), day 27) was 129 and 134 and 114 and 143 and 144 and 131 and the Animal weight (Group 4 (SCV-07 on days −1, 4, 5 and 10-29), day 28) was 131 (2×) and 136 and 114 and 145 and 146. The Animal weight (Group 4 (SCV-07 on days −1, 4, 5 and 10-29), day 29) was 131 (2×) and 134 and 112 and 146 and 144, the Animal weight (Group 4 (SCV-07 on days −1, 4, 5 and 10-29), day 30) was 133 and 138 and 116 and 150 and 149 and 136 and the Animal weight (Group 4 (SCV-07 on days −1, 4, 5 and 10-29), day 31) was 136 (2×) and 142 and 118 and 152 and 151. For the same compound, the Animal weight (Group 4 (SCV-07 on days −1, 4, 5 and 10-29), day 32) was 138 (2×) and 142 and 119 and 153 and 152, the Animal weight (Group 4 (SCV-07 on days −1, 4, 5 and 10-29), day 33) was 141 (2×) and 146 and 122 and 158 and 157 and the Animal weight (Group 4 (SCV-07 on days −1, 4, 5 and 10-29), day 34) was 140 (2×) and 147 and 122 and 157 and 158. For the same compound, the Animal weight (Group 4 (SCV-07 on days −1, 4, 5 and 10-29), day 35) was 141 (2×) and 146 and 124 and 158 and 159 and the Animal weight (Group 4 (SCV-07 on days −1, 4, 5 and 10-29), day −1) was 80 and 85 (2×) and 82 and 87 (2×) and 84 and 89 and 70 and 81.
